Measured values as given in PubChem BioAssay AID1259415 (National Center for Advancing Translational Sciences (NCATS), 2018).
Several values for one entry are separate records, joined by “and”; a condition that tells them apart may be missing. Equal values may be shown once. Among all 410,000 compounds or so, about 18,000 (4.4%) were called active. This list was built around the results that the source calls inconclusive (neither active nor inactive); the mix of calls is not that of the screen. Cut-off read from the data, not from the text of the source: active = activity change below about -60%; inconclusive = no clear call, values can overlap the other calls; inactive = above about -39%.

Experiment: qHTS Assay for inhibitors of the human cytomegalovirus (HCMV)
Conditions: HFF cells, HCMV-luciferase reporter, 72 h; at 57.5 µM; stronger effect = lower value
Procedure, shortened: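 Inhibition of viral replication was scored as loss of reporter luminescence in HFFs infected with HCMV-luciferase (MOI 1 PFU/cell) for 72 h; compounds tested at 2 doses, normalized to buffer and Salinomycin controls.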
% is set by controls: 0 for no effect and ±100 for the full control effect.

| SMILES | activity change, negative = inhibition |
| --- | --- |
| Cc1ccc(-c2nc(SCC(N)=O)c(C#N)c3c2CCCC3)cc1 | inconclusive: -50.3% |
| COc1ccccc1/C=C/C(=O)Nc1nc2n(n1)C(c1ccc(F)cc1)C=C(c1ccccc1)N2 (configuration not stated) | inactive: -1.08% |
| Cc1ccc(OCCn2c(C3CC(=O)N(Cc4ccc(F)cc4)C3)nc3ccccc32)c(C)c1 (configuration not stated) | active: -91.6% |
| COc1ccc(C(=O)CSc2nc(=O)n3ccc(C)cc3n2)cc1 | inconclusive: -44.4% |
| Cc1nn(CCC(=O)Nc2cccc(C#N)c2)c(C)c1S(=O)(=O)N1CCCCC1 | inconclusive: -42.3% |
| COc1ccc(-c2nc3ccccc3c(=O)[nH]2)cc1 | inactive: 40.3% |
| COC(=O)c1cc(Nc2cc(C)c3c(O)cccc3n2)cc(C(=O)OC)c1 | inconclusive: -55.6% |
| CC(C)(C)C(=O)Nc1cccc(S(=O)(=O)NC2=NCCC2)c1 | inconclusive: -41% |
| Cc1nn(C)c(C(=O)NNC(=S)NCc2ccco2)c1Br | inconclusive: -42.6% |
| COc1ccc(-c2ccc(=O)n(CC(=O)Nc3cc(OC)ccc3OC)n2)cc1 | inactive: 1.24% |
| COc1ccccc1CNC(=O)COC(=O)c1cccs1 | inconclusive: -43% |
| CC1CCN(C(=O)CCN2C(=O)C3C4C=CC(C4)C3C2=O)CC1 (configuration not stated) | inconclusive: -55% |
| O=C(NCc1ccccc1)C1C(c2ccccc2)=Nc2ccccc2N1C(=O)c1ccncc1 (configuration not stated) | inconclusive: -56.9% |
| CC1(c2ccc(OCC#N)cc2)C=C(c2ccc(OCC#N)cc2)n2nc(C(F)(F)F)nc2N1 (configuration not stated) | active: -69.1% |
| O=C(NCc1cccc(Cl)c1)c1cnc(N2CCOCC2)c2ccccc12 | inactive: 4.69% |
| COc1ccc(C)cc1-n1nnnc1SCC(=O)NC1CCS(=O)(=O)C1 (configuration not stated) | inconclusive: -48.8% |
| C#CCNC(=O)C1=C[C@@H](c2cn(C(C)=O)c3ccccc23)C[C@@H](OCCCCO)O1 | inactive: -30.1% |
| N#Cc1c2n(c3c(=S)nc[nH]c13)CCCCC2 | active: -74.7% |
| FC(F)(F)c1ccccc1-n1c(-c2ccco2)n[nH]c1=S | inconclusive: -52.6% |
| CCCN[C@H]1CCc2nc(N)sc2C1 | inactive: 61.5% |
| CC1CCC(C(C)C)C(OC(=O)Cn2c(COc3ccccc3)[n+](C)c3ccccc32)C1 (configuration not stated) | active: -99.9% |
| Cc1cc(Cl)ccc1NC(=O)CCC(=O)N/N=C/c1cccnc1 | active: -67.7% |

| SMILES | activity change, negative = inhibition |
| --- | --- |
| COn1c(SCc2cccnc2)nc2ccccc2c1=O | inconclusive: -48.5% |
| O=C(CCc1ccccn1)NC1CCCc2c1cnn2-c1ccc(F)cc1F (configuration not stated) | inconclusive: -48.8% |
| O=C(O)c1cccc(S(=O)(=O)Nc2cccc(S(=O)(=O)N3CCCCCC3)c2)c1 | inconclusive: -43.3% |
| Cc1ccc(NC(=O)COc2ncnc3cc([N+](=O)[O-])ccc23)cc1S(=O)(=O)N1CCOCC1 | inconclusive: -41.6% |
| Cc1c(C#N)c(O)n(C)c(=O)c1N=Nc1ccc(S(N)(=O)=O)cc1 | inconclusive: -54% |
| CC1CCC(NC(=O)c2ccc3c(c2)S(=O)(=O)c2ccccc2C3=O)CC1 (configuration not stated) | active: -67.1% |
| COC(=O)C(CCSC)NC(=O)CNS(=O)(=O)c1ccc(F)cc1 (configuration not stated) | inconclusive: -48.7% |
| CCN1CCN(CCC(=O)Nc2cccc(OC)c2)CC1 | inactive: 23.1% |
| CCCCC(=O)OC1=CN(Cc2ccccc2)S(=O)(=O)c2ccccc21 | inactive: -6.62% |
| Oc1c(Cl)cccc1Cc1cc(Cl)cc(Cl)c1O | inconclusive: -53% |
| Cc1ccc(-n2nnnc2SCC(=O)NCCc2ccccc2)cc1C | inactive: -6.76% |
| CCc1ccc(NC(=O)c2cnn3ccccc23)cc1 | inactive: -31.2% |
| Cc1cc(NNC(=O)c2cccc(C(F)(F)F)c2)nc2c1c(C)nn2C | inconclusive: -56.9% |
| O=C(Nc1ccccn1)NC1CCS(=O)(=O)C1 (configuration not stated) | active: -103% |
| COc1cc(OC)cc(C(=O)NC(=S)N2CCCCCC2)c1 | inconclusive: -41.5% |
| CCOc1ccc(OCc2ccc(C(=O)N3CCCC3)o2)cc1 | inconclusive: -40.1% |
| Cc1cc(C)c2cc(C#N)c(SCC(=O)Nc3ccc4c(c3)OCO4)nc2c1 | inconclusive: -47% |
| O=C(c1ccc(F)cc1)N1c2ccccc2-n2c(nc3ccccc32)C1CCc1ccccc1 (configuration not stated) | inconclusive: -56.6% |
| CN(C)c1ccnc2sc3c(=O)n(-c4ccccc4)cnc3c12 | inactive: -22.7% |
| O=C(c1ccccc1)N(c1ccccc1)c1ccccc1O | inconclusive: -40.5% |
| CSc1ccc(CCNC(=O)c2ccc(-n3c(C)cc4c3CCC(C)C4)cc2)cc1 (configuration not stated) | inconclusive: -46.7% |
| CN(C)c1nc(N)nc2c1ncn2C1OC(CO)CC1O (configuration not stated) | inconclusive: -46.1% |

Of the compounds above, three contain an NH in an aromatic ring.

| SMILES | activity change, negative = inhibition |
| --- | --- |
| COc1ccc(-c2nc3ccccc3c(=O)[nH]2)cc1 | inactive: 40.3% |
| N#Cc1c2n(c3c(=S)nc[nH]c13)CCCCC2 | active: -74.7% |
| FC(F)(F)c1ccccc1-n1c(-c2ccco2)n[nH]c1=S | inconclusive: -52.6% |

Later entries:

| SMILES | activity change, negative = inhibition |
| --- | --- |
| CCn1c(SCC(=O)Nc2ccccc2N2CCCCC2)nc2c1c(=O)n(C)c(=O)n2C | active: -68.7% |
| CN1CCC(N(CCc2ccccc2)C(=O)CCC(=O)O)CC1 | inactive: 16.4% |
| COc1ccc(OCC(=O)NCc2ccc3c(c2)CCN3C(=O)c2cccc(C)c2)cc1 | inconclusive: -43.4% |
| CC(=O)N1CCCC1c1nc2ccccc2n1Cc1cccc(C)c1 (configuration not stated) | inactive: 3.36% |
| Cc1ccc(N(CC(=O)NCCSCc2ccco2)S(=O)(=O)c2ccc(C)cc2)cc1 | inconclusive: -40.5% |
| COc1ccc2c(c1)c(C(=O)N/N=C/c1cccc(Br)c1)c(C)n2C | inconclusive: -53.5% |
| Cc1cc(NC(=O)c2cc(-c3ccccc3Cl)nc3ccccc23)no1 | inconclusive: -49% |
| Cc1ccc(-n2ncc3c(SCc4cccnc4)ncnc32)c(C)c1 | active: -84.2% |
| O=c1cc(N=Nc2ccc(Cl)cc2)[nH]c(=O)[nH]1 | active: -100% |
| O=C(Nc1cccc(S(=O)(=O)C(F)F)c1)c1ccc(Cl)c(S(=O)(=O)N2CCOCC2)c1 | inconclusive: -49.4% |
| C=C(C)CNC(=S)N/N=C/c1ccc(N2CCOCC2)cc1 | active: -78.2% |
| CC1(C)CC(=O)C2=C(C1)OC(c1ccc(O)cc1)C(C#N)=C2N (configuration not stated) | inconclusive: -51.7% |
| O=C(Cc1ccccc1)NNC(=O)Nc1ccc(Cl)c(Cl)c1 | inconclusive: -44.6% |
| CN1CCN(C(=O)c2cnn(-c3ccc(F)cc3F)c2C2CCN(C(=O)OC(C)(C)C)CC2)CC1 | inconclusive: 0% |
| COCCCNC(=S)N1CCN(Cc2ccc3c(c2)OCO3)CC1 | active: -103% |
| COc1ccccc1CC(=O)NNS(=O)(=O)c1ccc([N+](=O)[O-])cc1 | inconclusive: -41% |
| CC1(C)OC(=O)C(=Cc2ccc(-c3ccc(Cl)c(C(=O)O)c3)o2)C(=O)O1 | inactive: -3.25% |
| COc1cc2c(C#N)c(N3CCCC3)nc(N)c2c(N)n1 | inactive: -10.7% and inactive: -19.4% |
| CC(C)=NNc1nc(-c2ccc([N+](=O)[O-])cc2)cs1 | inconclusive: -54% |
| COc1ccc(/C=N/NC(=S)Nc2ccccc2)cc1COc1ccccc1F | inactive: -34.7% |
| COc1ccc(Nc2nc(-c3ccc(OC)cc3)cs2)cc1 | inactive: -9.99% |
| CCCN(C(=O)COC(=O)Cn1c(=O)oc2ccccc21)c1c(N)n(Cc2ccccc2)c(=O)[nH]c1=O | inactive: -15.4% |

Rewritten as labelled records: entries from further up
N#Cc1c2n(c3c(=S)nc[nH]c13)CCCCC2
  activity change, negative = inhibition: active: -74.7%
COc1ccc2c(c1)c(C(=O)N/N=C/c1cccc(Br)c1)c(C)n2C
  activity change, negative = inhibition: inconclusive: -53.5%
COc1cc2c(C#N)c(N3CCCC3)nc(N)c2c(N)n1
  activity change, negative = inhibition: inactive: -10.7% and inactive: -19.4%
COc1ccc(/C=N/NC(=S)Nc2ccccc2)cc1COc1ccccc1F
  activity change, negative = inhibition: inactive: -34.7%

Going on with the list:

| SMILES | activity change, negative = inhibition |
| --- | --- |
| COc1cc(NC(=O)c2ccc(C)cc2C)ccc1NC(=O)c1cc2ccccc2o1 | active: -81.8% |
| NC(=O)CC(NC(=O)Cc1ccc(Cl)cc1)c1ccc(NC2CCN(Cc3ccccc3)CC2)c([N+](=O)[O-])c1 (configuration not stated) | inconclusive: -51.3% |
| Cc1ccc(-n2ncc(C(=O)NCc3ccc4c(c3)OCO4)c2C2CCN(C(=O)OC(C)(C)C)CC2)c(C)c1 | inconclusive: -50.8% |
| COc1ccc(OC)c(NC(=O)c2ccc(CN(c3cc(Cl)ccc3C)S(=O)(=O)c3ccccc3)cc2)c1 | inactive: -38.5% |
| COc1cc(C(=O)N/N=C/c2sccc2C)cc(OC)c1OC | active: -87% |
| CCC1CCc2c(sc(NC(=O)c3ccco3)c2C(N)=O)C1 (configuration not stated) | inactive: 80.1% |
| CCc1nnc(NC(=O)CSc2nnc(-c3ccccc3O)n2-c2ccc(C)cc2C)s1 | inconclusive: -54.6% |
| O=C(CC(c1cccs1)N1Cc2ccccc2C1=O)Nc1ccc(F)cc1 (configuration not stated) | inactive: 0.973% |
| CCOC(=O)[C@H]1[C@H]2COc3ccc(Cl)cc3[C@@H]2N2C(=O)CN(Cc3ccc(Cl)cc3)C(=O)[C@@]12C | active: -99.4% |
| CCCCOc1ccc(C(C)NC(=O)CCS(=O)(=O)Cc2ccc(C)cc2)cc1 (configuration not stated) | inconclusive: -55.8% |
| O=C(O)c1ccc(CSCc2ccccc2)o1 | active: -84.7% |
| Cc1cc(C(=O)COC(=O)CC2Sc3ccccc3NC2=O)c(C)n1-c1ccccc1 (configuration not stated) | inactive: -11% |
| Cc1cc(C)c(S(=O)(=O)NC(CC(=O)O)c2cccc([N+](=O)[O-])c2)c(C)c1 (configuration not stated) | inactive: -24.4% |
| [O-]/C(=C(\C(=S)Nc1ccc(Cl)cc1)[n+]1ccccc1)c1ccc(OC(F)F)cc1 | inconclusive: -58.2% |
| Cc1cc(Nc2cccc(Cl)n2)n(-c2ccccc2)n1 | inconclusive: -49% |
| O=C(C/C=N/OCc1c(Cl)cccc1Cl)c1cnc(-c2ccccc2)s1 | inconclusive: -43.9% |
| Cc1cc(/C=C2\SC(=Nc3ccc(F)cc3)NC2=O)c(C)n1-c1ccc(S(N)(=O)=O)cc1 | active: -83.6% |
| COc1ccccc1NC(=O)CSc1nnnn1-c1ccc(C(=O)O)cc1 | inactive: -22.2% |
| COc1cc(CNCCO)ccc1OCC(=O)Nc1ccc(Br)cc1 | inactive: 55% |
| Cc1cc(C)c2nc3sc(C(=O)N4CCOCC4)c(N)c3cc2c1 | active: -93.7% |
| CC(NC(=O)COC(=O)Cc1ccc(Cl)cc1)c1ccccc1 (configuration not stated) | inactive: -2.64% |
